Measured values published in PubChem BioAssay AID1347075 (National Center for Advancing Translational Sciences (NCATS), 2019).
Out of some 400,000 compounds screened, about 5,500 (1.4%) were called active. This list was built around the results that the source calls inconclusive (neither active nor inactive); the mix of calls is not that of the screen. Calls come from the whole dose curve; as a rule, active = well fitted cell-killing curve with a large enough effect; inconclusive = small, poorly fitted or top-dose-only effect, or effect the other way; inactive = flat fitted curve, though single readings scatter. Potencies of inconclusive entries are doubtful fits and often do not repeat. Where a structure was tested more than once in an assay, its records may differ in their call.

Assay: qHTS assay for MDR1-selective chemotherapeutics: Primary screen using the parental adenocarcinoma cell KB-3-1; note: nearly all actives have a fitted effect of over 60% in size
Conditions: KB-3-1 viability, CellTiter-Glo ATP luminescence, 72 h; activity change, negative = cytotoxic: at 46.1 µM (top of the series)
Procedure, shortened: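 Luminescent ATP read-out (CellTiter-Glo) measures survival of drug-naive KB-3-1 cells after 72 h compound exposure at 37 °C. Titration series was screened from lowest to highest concentration, with DMSO vehicle plates as background controls.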
% is set by controls: 0 for no effect and ±100 for the full control effect; potency is the fitted concentration of half-maximal effect.

Row | SMILES | activity change, negative = cytotoxic | Potency
1 | COc1ccccc1N1CCN(CC(=O)Nc2ccc(Cl)c(C(F)(F)F)c2)CC1 | inactive: -9.57% | –
2 | Cc1cc2n(n1)C(c1ccc(N(C)C)cc1)Nc1ccccc1-2 (stereo not given) | – | inconclusive: 20.6 µM [cytotoxic, single point]
3 | COCCNC(=O)C1(C)CCN(C(=O)c2ccc3sccc3c2)C1 (stereo not given) | inactive: 0% | –
4 | CC(C)C1CC(CCN)(Cc2ccccc2)CCO1 (stereo not given) | – | inconclusive: 23.1 µM [cytotoxic, single point]
5 | Cc1ccc(C(=O)N/C(=C\c2ccc(-c3cccc([N+](=O)[O-])c3)o2)C(=O)NCCCN(C)C)cc1 | – | inconclusive: 29.1 µM [cytotoxic, single point]
6 | CCN1CCN(c2cc(C)c3cc(NC(=S)N4CCC5(CC4)OCCO5)ccc3n2)CC1 | – | inconclusive: 25.9 µM [cytotoxic, partial curve, poor fit]
7 | O=C(CN1CCC(NC(=O)Nc2ccccc2)CC1)Nc1ccccc1F | – | inconclusive: 4.11 µM [rising, full curve]
8 | Cc1nnc(N2CCCC(C(=O)NCCc3ccccc3)C2)c2nn(-c3ccccc3)c(C)c12 (stereo not given) | inactive: 6.74% | –
9 | O=C(c1cccc(COc2cccc3ccccc23)c1)N1CCCC1 | – | inconclusive: 18.4 µM [cytotoxic, single point]
10 | COc1ccc(CN(C)C(=O)C23CC4CC(CC(C4)C2)C3)c(OC)c1 | – | inconclusive: 14.6 µM [cytotoxic, partial curve]
11 | COc1cccc(C(c2ccccc2)N2C3CCC2CN(S(=O)(=O)c2ccc(F)cc2)CC3)c1 (stereo not given) | – | inconclusive: 13 µM [cytotoxic, partial curve, poor fit]
12 | CCOC(=O)N1CCN(S(=O)(=O)c2ccc(OCC(=O)OC)c(Cl)c2)CC1 | inactive: -7.24% | –
13 | O=C(CNS(=O)(=O)c1ccc(Br)s1)N1CCCC1 | inactive: -3.43% | –
14 | CC(C)CNC1CS(=O)(=O)CC1O (stereo not given) | inactive: 8.45% | –
15 | Cc1cccc(NC(=O)c2nc(S(=O)(=O)Cc3ccccc3)ncc2Cl)c1 | – | active: 5.8 µM
16 | Nc1cccc(C#Cc2ccc3c(=O)c4ccccc4oc3c2)c1 | inactive: -29.9% | –
17 | CC(=O)Nc1ccc(-c2ccnc3c2CC(C(=O)NCCc2ccccc2)O3)cc1 (stereo not given) | inactive: -0.62% | –
18 | COc1ccc(-c2cc(C(=O)NCC3CCCO3)c3cc(C)ccc3n2)cc1 (stereo not given) | – | inconclusive: 0.0046 µM [rising, full curve, poor fit]
19 | O=C(Nc1ccc(Cl)cc1)N1CCC(c2nc(-c3ccccc3Cl)no2)CC1 | – | inconclusive: 16.4 µM [cytotoxic, single point]
20 | Cc1cc2cc(CCNC(=O)c3cccc([N+](=O)[O-])c3)c(=O)[nH]c2cc1C | – | inconclusive: 29.1 µM [rising, single point]
21 | CC(C)C[C@H]1CN(CCCC[C@H]2CNC(=O)C(=O)N2CCc2ccccc2)C(=O)C(=O)N1Cc1ccccc1 | inactive: 12.9% | –
22 | CCOc1ccc(S(=O)(=O)Nc2ccc3c(c2)n(C)c(=O)n3C)cc1 | – | inconclusive: 16.4 µM [cytotoxic, partial curve, poor fit]
23 | O=C(CSc1nnc2c(n1)[nH]c1ccccc12)N1CCCCC1 | inactive: -8.38% | –
24 | CCOc1ccc(NC(=O)CSc2nc3nc(C)cc(C)n3n2)cc1 | – | inconclusive: 18.4 µM [cytotoxic, single point]

Row | SMILES | activity change, negative = cytotoxic | Potency
25 | CC(CC(=O)Nc1ccc(Cl)c(S(=O)(=O)N2CCOCC2)c1)c1ccccc1 (stereo not given) | – | active: 4.61 µM
26 | Cc1ccc2oc(=O)c3cnn(CC(=O)NCCCOC(C)C)c3c2c1 | – | inconclusive: 29.1 µM [cytotoxic, single point]
27 | OC1CCN(c2cc(-c3ccccc3)nc3cc(-c4ccc(F)cc4)nn23)CC1 | inactive: 13.1% | –
28 | Cc1cc(C(=O)NC2CCCc3c2cnn3-c2ccc(C(C)(C)C)cc2)nn1C (stereo not given) | – | inconclusive: 16.4 µM [cytotoxic, partial curve, poor fit]
29 | O=C1c2cc3c(cc2CCC1c1ccc2c(c1)OCO2)OCO3 (stereo not given) | inactive: 14.1% | –
30 | COCOc1ccc(C=O)c(O)c1 | – | inconclusive: 0.013 µM [rising, full curve]
31 | CCCCC[C@H](C)N1C[C@H](COCc2ccccc2)Oc2cc(N3CC[C@H](N(C)C)C3)ccc2S1(=O)=O | – | inconclusive: 20.6 µM [cytotoxic, single point]
32 | C=C(C)COc1ccc(-c2nc(N)ncc2-c2ccccc2OC)c(O)c1 | – | inconclusive: 13 µM [rising, partial curve, poor fit]
33 | O=C(O)c1c2c(nc3ccccc13)CCCC2 | – | inconclusive: 13 µM [rising, partial curve, poor fit]
34 | CCOc1ccc(C(=O)C(CN2CCOCC2)c2ccccc2)cc1 (stereo not given) | – | inconclusive: 29.1 µM [cytotoxic, single point]
35 | COc1ccc(/C=N/Nc2nc(N3CCCC3)nc(N3CCCC3)n2)cc1 | inconclusive: -56.3% | –
36 | C=CCNC(=O)Cc1c(OC)ccc2cc(Br)ccc12 | – | inconclusive: 23.1 µM [cytotoxic, single point]
37 | CCc1ccc(C(=O)OCC(=O)c2c(N)n(CC(C)C)c(=O)n(C)c2=O)cc1 | – | inconclusive: 18.4 µM [cytotoxic, single point]
38 | CCC(C)(C)n1nnnc1C(c1ccncc1)N1CCC(C)CC1 (stereo not given) | inactive: -9.9% | –
39 | COC(=O)c1cccc(C23CC4(C2)[C@H](CN(Cc2cccnc2)[C@@H]4c2ccccc2)C3c2ccc(Cl)nc2)c1 (stereo not given in full) | – | inconclusive: 29.1 µM [cytotoxic, single point]
40 | Cc1ccc(-c2n[nH]c(=O)c3ccccc23)cc1S(=O)(=O)NCC1CCCO1 (stereo not given) | inconclusive: 29.3% | –
41 | Oc1ccc(C[C@H]2CNCCN2CCCCC2CCCCC2)cc1 | – | inconclusive: 18.4 µM [cytotoxic, single point]
42 | C=CCn1c(=S)[nH]c2nc3c(cc2c1=O)CCCC3 | – | inconclusive: 25.9 µM [cytotoxic, single point]
43 | Cc1cc(Br)cc(/C=N/NC(=O)c2ccc3c(c2)OCO3)c1O | – | inconclusive: 20.6 µM [cytotoxic, single point]
44 | CC(C)(C)c1ccc(CC(=O)N2CCC2(C)C(=O)Nc2cnc3ccccc3c2)cc1 (stereo not given) | – | inconclusive: 23.1 µM [cytotoxic, single point]
45 | COc1ccc(CN2CCN(C(=O)c3cc(-c4cccnc4)nc4ccc(Cl)cc34)CC2)c(OC)c1OC | inactive: -0.117% | –
46 | COCCNC(=O)C1(C)CCN(C(=O)c2cc(C)nn2C(C)(C)C)C1 (stereo not given) | inactive: 0% | –
47 | O=C(NCC1CCCN(Cc2ccccc2F)C1)c1cccc(C(F)(F)F)c1 (stereo not given) | – | inconclusive: 29.1 µM [cytotoxic, single point]
48 | COc1ccc(Cl)cc1Nc1nc(C)nc2c1oc1ccccc12 | – | inconclusive: 10.3 µM [cytotoxic, partial curve, poor fit]

Whole records as entered above. Order of values: activity change, negative = cytotoxic	Potency
CC(C)CNC1CS(=O)(=O)CC1O (stereo not given) as listed: inactive: 8.45%	–
CCN1CCN(c2cc(C)c3cc(NC(=S)N4CCC5(CC4)OCCO5)ccc3n2)CC1 as listed: –	inconclusive: 25.9 µM [cytotoxic, partial curve, poor fit]
COc1ccccc1N1CCN(CC(=O)Nc2ccc(Cl)c(C(F)(F)F)c2)CC1 as listed: inactive: -9.57%	–
O=C(CNS(=O)(=O)c1ccc(Br)s1)N1CCCC1 as listed: inactive: -3.43%	–

The listing continues:

Row | SMILES | activity change, negative = cytotoxic | Potency
49 | Cc1ccccc1-c1nc(Cc2ccccc2)no1 | inactive: -5.89% | –
50 | CCN1CCN(c2cc(C)c3cc(NC(=O)c4ccc(OC)c(OC)c4)ccc3n2)CC1 | – | active: 3.66 µM
51 | Cc1ccc(C)c(OCc2ccc(C(=O)N3N=C(C(F)F)CC3(O)C(F)F)o2)c1 (stereo not given) | inconclusive: -33% [cytotoxic] | –
52 | CCCCn1c(=NC(=O)c2ccco2)c(C(=O)OCC)cc2c(=O)n3cccc(C)c3nc21 | inactive: 1.98% | –
53 | COc1ccc(C)cc1Nc1nc(N)c2cc(OC)c(OC)cc2n1 | – | inactive
54 | N#Cc1ccc(-c2ccc(OCC(=O)NN=Cc3ccncc3)cc2)cc1 | inactive: 16.8% | –
55 | O=C(Nc1ccc(F)cc1)c1nc[nH]c1C(=O)Nc1ccccc1[N+](=O)[O-] | – | inconclusive: 25.9 µM [rising, partial curve, poor fit]
56 | Clc1cccc(CNc2ncnc3nc[nH]c23)c1 | inactive: 0% | –
57 | COc1ccc(-c2ccc3c(c2)C2CC3CCN2S(=O)(=O)c2ccccc2C)cc1 (stereo not given) | – | inconclusive: 20.6 µM [cytotoxic, single point]
58 | CCC(C)c1ccc(NC(=O)CC(C)=O)cc1 (stereo not given) | – | inconclusive: 0.0073 µM [cytotoxic, full curve]
59 | Cc1ccc(-c2cc([C@H]3[C@@H]4C=CCC[C@@]4(C)C(=O)N3Cc3ccccc3)ccc2F)cc1 | – | inconclusive: 20.6 µM [cytotoxic, single point]
60 | C[C@H]1C(=O)N(C)CCN1Cc1cn(C)nc1-c1ccc(Oc2ccccc2)cc1 | – | inconclusive: 29.1 µM [cytotoxic, single point]
61 | CCc1cccc(NC(=O)CCNS(=O)(=O)c2ccc3c(c2)CCN3C(C)=O)c1 | inactive: -2.62% | –
62 | CC1(C)CCC[C@]2(C)C(CS(=O)c3ccccc3)=C(C=O)CC[C@@H]12 (stereo not given in full) | – | inconclusive: 29.1 µM [cytotoxic, single point]
63 | CC1(C(=O)NCc2ccc(F)c(F)c2)Cc2c(-c3ccccc3)ccnc2O1 (stereo not given) | – | inconclusive: 29.1 µM [cytotoxic, single point]
64 | CC1(C)CC(N2CCN(c3ccccc3)CC2)=CC(=[N+]2CCCC2)C1 | – | active: 11.6 µM
65 | CN1C2CCC1/C(=C\c1ccc(F)cc1)C(=O)/C2=C/c1ccc(F)cc1 | – | inconclusive: 29.1 µM [cytotoxic, single point]
66 | CN(CC(=O)Nc1cccc(F)c1)C(=O)CC1CCCCC1 | inconclusive: 30.1% | –
67 | Cc1[nH]n(C2=NCCS2)c(=O)c1N=Nc1cccc(C(F)(F)F)c1 | – | inconclusive: 3.26 µM [cytotoxic, full curve, poor fit]
68 | O=C(NCc1cccc(Br)c1)C1CC(c2ccccc2[N+](=O)[O-])=NO1 (stereo not given) | – | inconclusive: 14.6 µM [cytotoxic, partial curve]
69 | CCCCn1nnnc1C(c1cccc2ccccc12)N1CCN(C/C=C/c2ccccc2)CC1 (stereo not given) | – | inconclusive: 29.1 µM [cytotoxic, partial curve, poor fit]
70 | COc1ccc(Cl)cc1NCCC(O)c1ccc(F)cc1 (stereo not given) | – | inconclusive: 16.4 µM [cytotoxic, partial curve, poor fit]
